# These are yes or no findings as the source states them, for the method shown. In cells and extracts the contact can be indirect. Some entries that bind do so weakly or less than the wild type.
# B1: endogenous VDR of human HaCaT keratinocytes (receptor, UniProt P11473 1-427)
# chain: MEAMAASTSLPDPGDFDRNVPRICGVCGDRATGFHFNAMTCEGCKGFFRRSMKRKALFTCPFNGDCRITKDNRRHCQACRLKRCVDIGMMKEFILTDEEVQRKREMILKRKEEEALKDSLRPKLSEEQQRIIAILLDAHHKTYDPTYSDFCQFRPPVRVNDGGGSHPSRPNSRHTPSFSGDSSSSCSDHCITSSDMMDSSSFSNLDLSEEDSDDPSVTLELSQLSMLPHLADLVSYSIQKVIGFAKMIPGFRDLTSEDQIVLLKSSAIEVIMLRSNESFTMDDMSWTCGNQDYKYRVSDVTKAGHSLELIEPLIKFQVGLKKLNLHEEEHVLLMAICIVSPDRPGVQDAALIEAIQDRLSNTLQTYIRCRHPPPGSHLLYAKMIQKLADLRSLNEEHSKQYRCLSFQPECSMKLTPLVLEVFGNEIS
# Molecular target: T1, biotinylated synthetic DRIP-2 peptide (VDR specific LXXLL nuclear receptor binding motif peptide)
# T1 sequence (peptide, biotin (position not stated)): NTKNHPMLMNLLKDNPAQD
# Assay: pull-down; biotinylated DRIP-2 peptide (1 ug) incubated with 6 mg HaCaT lysate overnight at 4 C, captured on magnetic streptavidin beads, washed with TBS + 0.05% TWEEN, western blot with anti-VDR and anti-PIM-1; control lysate without peptide; only the target purified
binder,measurement,value
B1,binding,binds

# — paper PMC3404970
